Assays:
[1] = tested on: KRAS G12C-mutant advanced CRC; assay: NCT04956640 Phase 1b Cohort C2 (with cetuximab) clinical response (BOR, ORR, DCR, DOR, TTR, % change from baseline, treatment duration); conditions: human, in vivo
Protocol: (§1) The term “BOR” as used herein refers to best overall response based on investigator assessments using RECIST criteria (version 1.1). The minimum duration for BOR of SD is at least 6 weeks after the date of first dose of study drug.
(§2) The term “DOR” as used herein refers to duration of response, wherein DOR in months is calculated as the event or censoring date minus the response start date plus 1 day divided by 30.4375.
(§3) The term “ORR” as used herein refers to objective response rate, wherein objective response rate is the proportion of patients with BOR of CR or PR. Objective response rate, unconfirmed, is the proportion of patients with BOR of CR, PR, or uPR.
(§4) The term “TTR” as used herein refers to time to response, wherein TTR in months is calculated as response start date minus first dose date plus 1 day divided by 30.4375.
(§5) NCT04956640 includes Phase 1a dose escalation (Part A of NCT04956640, see Table 3) followed by a Phase 1b dose expansion (Parts B to E of NCT04956640, see Table 4). […] Phase 1b dose expansion will include 12 cohorts (See Table 4) to further evaluate safety and clinical activity.

[2] = tested on: KRAS G12C-mutant advanced NSCLC; assay: NCT04956640 Phase 1b Cohort B4 (with pembrolizumab) clinical response (BOR, ORR, DCR, DOR, TTR, % change from baseline, treatment duration); format: in vivo, human
Protocol: as §1, §2, §3, §4

[3] = tested on: KRAS G12C-mutant advanced solid tumors; assay: NCT04956640 Phase 1a monotherapy clinical response (BOR, ORR, DCR, DOR, TTR, % change from baseline, treatment duration); format: in vivo, human; conditions: for TOS in Months, Median / TOT in Months of the compound of Formula I, Median / Time on Study (TOS) in Months, Mean / Time on Treatment (TOT) in Months of the compound of Formula I, Mean: Phase 1a
Protocol: as §1, §2, §3, §4, §5

[4] = Total (N = 25), Cohort B4, April 2023
[5] = combination with pembrolizumab, Total (N = 25), Cohort B4, April 2023
[6] = combination with pembrolizumab, starting dose 50 mg BID (N = 5), Cohort B4, April 2023
[7] = combination with pembrolizumab, starting dose 100 mg BID (N = 14), Cohort B4, April 2023
[8] = combination with pembrolizumab, starting dose 150 mg BID (N = 6), Cohort B4, April 2023
[9] = starting dose 50 mg BID (N = 5), Cohort B4, April 2023
[10] = starting dose 100 mg BID (N = 14), Cohort B4, April 2023
[11] = starting dose 150 mg BID (N = 6), Cohort B4, April 2023
[12] = April 2023, starting dose 50 mg BID (N = 16)
[13] = April 2023, starting dose 100 mg BID (N = 32)
[14] = April 2023, starting dose 150 mg BID (N = 48)
[15] = April 2023, starting dose 200 mg BID (N = 13)

SMILES: C=CC(=O)N1CCN2C(=O)c3cc(F)c(-c4ccc(F)c5sc(N)c(C#N)c45)c(Cl)c3OCC[C@H]2C1 (single isomer, unassigned) [Formula I]
- Median time on treatment [1]: 1.8 months
- TOS in Months, Max [2, 4]: 9.79 Months
- TOS in Months, Median [2, 4]: 4.76 Months
- TOS in Months, Min [2, 4]: 0.33, Months
- TOS in Months, Q1 [2, 4]: 2.40, Months
- TOS in Months, Q3 [2, 4]: 6.74 Months
- TOT in Months of any treatment, Min [2, 4]: 0.33, Months
- TOT in Months of any treatment, Q1 [2, 4]: 1.41, Months
- TOT in Months of the compound of Formula I, Min [2, 4]: 0.33, Months
- TOT in Months of the compound of Formula I, Q1 [2, 4]: 1.41, Months
- Time on Study (TOS) in Months, Mean [2, 4]: 4.76 Months
- Time on Treatment (TOT) in Months of any treatment, Mean [2, 4]: 4.17 Months
- Time on Treatment (TOT) in Months of the compound of Formula I, Mean [2, 4]: 4.17 Months
- TOT in Months of Combination, Min [2, 5]: 0.33, Months
- TOT in Months of Combination, Q1 [2, 5]: 1.25, Months
- TOT in Months of Combination, Min [2, 6]: 0.72, Months
- TOT in Months of Combination, Q1 [2, 6]: 2.10, Months
- TOT in Months of Combination, Median [2, 7]: 2.30 Months
- TOT in Months of Combination, Min [2, 7]: 0.33, Months
- TOT in Months of Combination, Q1 [2, 7]: 0.85, Months
- TOT in Months of Combination, Min [2, 8]: 0.72, Months
- TOT in Months of Combination, Q1 [2, 8]: 1.45, Months
- Median time on treatment ([2]; human, in vivo): 2.5 months
- patients remain ongoing ([2]; human, in vivo): 100%
- TOS in Months, Max [2, 9]: 5.42 Months
- TOS in Months, Median [2, 9]: 4.67 Months
- TOS in Months, Min [2, 9]: 3.19, Months
- TOS in Months, Q1 [2, 9]: 4.04, Months
- TOS in Months, Q3 [2, 9]: 4.76 Months
- TOT in Months of any treatment, Max [2, 9]: 4.76 Months
- TOT in Months of any treatment, Min [2, 9]: 1.41, Months
- TOT in Months of any treatment, Q1 [2, 9]: 2.79, Months
- TOT in Months of the compound of Formula I, Max [2, 9]: 4.76 Months
- TOT in Months of the compound of Formula I, Min [2, 9]: 1.41, Months
- TOT in Months of the compound of Formula I, Q1 [2, 9]: 2.79, Months
- Time on Study (TOS) in Months, Mean [2, 9]: 4.42 Months
- Time on Treatment (TOT) in Months of any treatment, Mean [2, 9]: 3.54 Months
- Time on Treatment (TOT) in Months of the compound of Formula I, Mean [2, 9]: 3.54 Months
- TOS in Months, Max [2, 10]: 9.79 Months
- TOS in Months, Median [2, 10]: 2.53 Months
- TOS in Months, Min [2, 10]: 0.33, Months
- TOS in Months, Q1 [2, 10]: 0.85, Months
- TOS in Months, Q3 [2, 10]: 5.91 Months
- TOT in Months of any treatment, Median [2, 10]: 2.53 Months
- TOT in Months of any treatment, Min [2, 10]: 0.33, Months
- TOT in Months of any treatment, Q1 [2, 10]: 0.85, Months
- TOT in Months of the compound of Formula I, Median [2, 10]: 2.53 Months
- TOT in Months of the compound of Formula I, Min [2, 10]: 0.33, Months
- TOT in Months of the compound of Formula I, Q1 [2, 10]: 0.85, Months
- Time on Study (TOS) in Months, Mean [2, 10]: 4.02 Months
- Time on Treatment (TOT) in Months of any treatment, Mean [2, 10]: 3.81 Months
- Time on Treatment (TOT) in Months of the compound of Formula I, Mean [2, 10]: 3.81 Months
- TOS in Months, Max [2, 11]: 8.34 Months
- TOS in Months, Median [2, 11]: 7.34 Months
- TOS in Months, Min [2, 11]: 4.44, Months
- TOS in Months, Q1 [2, 11]: 4.86, Months
- TOS in Months, Q3 [2, 11]: 8.18 Months
- TOT in Months of any treatment, Median [2, 11]: 5.95 Months
- TOT in Months of any treatment, Min [2, 11]: 0.95, Months
- TOT in Months of any treatment, Q1 [2, 11]: 4.86, Months
- TOT in Months of any treatment, Q3 [2, 11]: 7.13 Months
- TOT in Months of the compound of Formula I, Median [2, 11]: 5.95 Months
- TOT in Months of the compound of Formula I, Min [2, 11]: 0.95, Months
- TOT in Months of the compound of Formula I, Q1 [2, 11]: 4.86, Months
- TOT in Months of the compound of Formula I, Q3 [2, 11]: 7.13 Months
- Time on Study (TOS) in Months, Mean [2, 11]: 6.75 Months
- Time on Treatment (TOT) in Months of any treatment, Mean [2, 11]: 5.53 Months
- Time on Treatment (TOT) in Months of the compound of Formula I, Mean [2, 11]: 5.53 Months
- TOS in Months, Median ([3]; April 2023, Total (N = 109)): 6.08 Months
- TOT in Months of the compound of Formula I, Median ([3]; April 2023, Total (N = 109)): 4.11 Months
- Time on Study (TOS) in Months, Mean ([3]; April 2023, Total (N = 109)): 6.88 Months
- Time on Treatment (TOT) in Months of the compound of Formula I, Mean ([3]; April 2023, Total (N = 109)): 5.16 Months
- TOS in Months, Median [3, 12]: 8.95 Months
- TOT in Months of the compound of Formula I, Median [3, 12]: 4.99 Months
- Time on Study (TOS) in Months, Mean [3, 12]: 9.74 Months
- Time on Treatment (TOT) in Months of the compound of Formula I, Mean [3, 12]: 6.65 Months
- TOS in Months, Median [3, 13]: 6.67 Months
- TOT in Months of the compound of Formula I, Median [3, 13]: 4.16 Months
- Time on Study (TOS) in Months, Mean [3, 13]: 6.71 Months
- Time on Treatment (TOT) in Months of the compound of Formula I, Mean [3, 13]: 5.11 Months
- TOS in Months, Median [3, 14]: 3.58 Months
- TOT in Months of the compound of Formula I, Median [3, 14]: 2.91 Months
- Time on Study (TOS) in Months, Mean [3, 14]: 5.31 Months
- Time on Treatment (TOT) in Months of the compound of Formula I, Mean [3, 14]: 4.50 Months
- TOS in Months, Median [3, 15]: 10.48 Months
- TOT in Months of the compound of Formula I, Median [3, 15]: 7.10 Months
- Time on Study (TOS) in Months, Mean [3, 15]: 9.57 Months
- Time on Treatment (TOT) in Months of the compound of Formula I, Mean [3, 15]: 5.91 Months
- Median time on treatment ([3]; human, in vivo): 3.8 months
